Measurements from US20210308207A1, “COMPOUNDS COMPRISING A LINKER FOR INCREASING TRANSCYCLOOCTENE STABILITY” (Tagworks Pharmaceuticals B.V., priority 2018, published 2021).
Some entries share one result that the patent states for a list of compounds.

System: LS174T xenografts
Experiment: MMAE concentration in tumour, liver and plasma after ADC activation (LC-QTOF-MS)
Format: in vivo, mouse
Details: AVP0458-TCO-MMAE ca. 2 mg/kg, activator ca. 3.35 μmol/kg 48 h later, 24 h post-activation

Cc1nnc(-c2nccc(CNC(=O)CCCC(=O)NC(CO)CO)n2)nn1 [Compound 4.28]
free MMAE in tumors: 100 to 180 nM

Cc1nnc(-c2nccc(CNC(=O)CN(CCN(CC(=O)O)CC(=O)O)CC(=O)O)n2)nn1 [Compound 4.26]
free MMAE in tumors: 100 to 180 nM
